These are yes or no findings as the source states them, for the method shown. For part of these data: Binding seen in cells or lysates may run through a third protein. Some binding calls cover weakened binding; strength is not graded here.
What was measured:
[1] = target: ATAD1 (mouse (endogenous in mouse muscle)) (UniProt Q9D5T0); experiment: co-IP
[2] = target: ATAD1 (mouse (endogenous in mouse muscle)) (UniProt Q9D5T0); experiment: SEC

Sequences of proteins named here, by UniProt entry; tags and fusion partners are left off. Residues count along the entry.
UniProt Q9D5T0, whole entry: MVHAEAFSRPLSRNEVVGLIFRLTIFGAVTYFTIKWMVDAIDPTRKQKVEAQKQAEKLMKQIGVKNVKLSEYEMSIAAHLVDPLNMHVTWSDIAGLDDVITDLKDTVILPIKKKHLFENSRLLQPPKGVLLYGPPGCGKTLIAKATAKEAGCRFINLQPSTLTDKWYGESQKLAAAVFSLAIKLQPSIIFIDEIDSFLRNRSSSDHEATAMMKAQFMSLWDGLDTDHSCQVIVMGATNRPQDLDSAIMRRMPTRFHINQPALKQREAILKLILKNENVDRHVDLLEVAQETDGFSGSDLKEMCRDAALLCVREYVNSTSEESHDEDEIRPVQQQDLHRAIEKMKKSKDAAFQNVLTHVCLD
UniProt Q38HM4, whole entry: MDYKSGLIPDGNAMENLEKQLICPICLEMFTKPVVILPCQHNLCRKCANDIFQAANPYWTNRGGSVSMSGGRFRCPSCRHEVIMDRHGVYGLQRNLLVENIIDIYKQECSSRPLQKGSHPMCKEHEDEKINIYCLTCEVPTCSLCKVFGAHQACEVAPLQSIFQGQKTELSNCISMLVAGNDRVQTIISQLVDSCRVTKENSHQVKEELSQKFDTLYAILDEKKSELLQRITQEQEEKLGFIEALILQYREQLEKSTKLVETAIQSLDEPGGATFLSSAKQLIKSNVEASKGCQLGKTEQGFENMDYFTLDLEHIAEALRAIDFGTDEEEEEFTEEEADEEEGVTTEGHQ
UniProt O08529, 20-700: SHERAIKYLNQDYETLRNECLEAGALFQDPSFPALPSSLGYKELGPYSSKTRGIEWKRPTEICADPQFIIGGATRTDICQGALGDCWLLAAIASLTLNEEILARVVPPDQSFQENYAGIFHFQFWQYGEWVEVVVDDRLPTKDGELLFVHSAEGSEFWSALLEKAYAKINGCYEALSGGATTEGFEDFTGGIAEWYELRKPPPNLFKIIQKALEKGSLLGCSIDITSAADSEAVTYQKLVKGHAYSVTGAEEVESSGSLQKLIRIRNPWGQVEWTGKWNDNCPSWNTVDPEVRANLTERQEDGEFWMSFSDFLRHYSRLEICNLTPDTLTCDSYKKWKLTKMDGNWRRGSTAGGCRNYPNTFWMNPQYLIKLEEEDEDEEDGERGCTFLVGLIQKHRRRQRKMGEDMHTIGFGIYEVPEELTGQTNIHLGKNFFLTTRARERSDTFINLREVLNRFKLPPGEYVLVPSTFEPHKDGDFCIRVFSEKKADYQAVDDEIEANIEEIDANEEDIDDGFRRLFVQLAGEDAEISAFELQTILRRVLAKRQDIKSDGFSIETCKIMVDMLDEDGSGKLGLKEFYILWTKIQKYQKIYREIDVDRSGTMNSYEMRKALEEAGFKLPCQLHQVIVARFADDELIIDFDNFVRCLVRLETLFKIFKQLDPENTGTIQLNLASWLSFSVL
UniProt O35350, whole entry: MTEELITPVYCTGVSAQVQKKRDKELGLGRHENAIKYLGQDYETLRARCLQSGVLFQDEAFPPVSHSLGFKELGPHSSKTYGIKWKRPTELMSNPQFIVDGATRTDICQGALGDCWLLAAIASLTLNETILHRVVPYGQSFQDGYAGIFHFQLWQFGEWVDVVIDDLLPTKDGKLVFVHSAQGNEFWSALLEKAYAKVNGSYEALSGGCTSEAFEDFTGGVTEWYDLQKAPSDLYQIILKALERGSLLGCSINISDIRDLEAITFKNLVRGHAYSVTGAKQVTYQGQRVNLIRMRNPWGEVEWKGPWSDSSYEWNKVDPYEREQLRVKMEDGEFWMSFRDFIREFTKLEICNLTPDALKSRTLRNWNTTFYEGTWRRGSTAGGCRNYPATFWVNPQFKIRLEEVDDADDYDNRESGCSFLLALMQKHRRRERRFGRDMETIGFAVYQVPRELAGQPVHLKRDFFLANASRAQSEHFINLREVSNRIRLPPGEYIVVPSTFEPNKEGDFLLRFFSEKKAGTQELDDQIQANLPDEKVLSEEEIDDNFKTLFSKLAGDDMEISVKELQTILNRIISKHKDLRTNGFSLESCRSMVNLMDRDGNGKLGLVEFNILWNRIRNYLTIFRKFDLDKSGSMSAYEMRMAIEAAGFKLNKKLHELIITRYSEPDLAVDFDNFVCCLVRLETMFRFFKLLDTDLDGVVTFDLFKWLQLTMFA

## MURF1 (from UniProt Q38HM4 1-350) (enzyme)
[1]
  binding: no binding

## calpain 2 (from UniProt O08529 20-700) (enzyme)
[2]
  binding: binds

## calpain-1 (from UniProt O35350 1-713) (enzyme)
[1]
  binding: binds
[2]
  binding: binds

B1: UBXN4 (protein, UniProt Q8VCH8 1-506)
chain: MLWFQGAIPAAIASAKRSGAVFVVFVAGDDEQSIQMAASWEDEKVTQASSNNFVAIKIDTKSEACLQFSQIYPVVCVPSSFFIGDSGIPLEVIAGSVSADELVTRIHKVQQMHSSKGEASVTNDNQSESSVSTPSASFEPDVCENPESKNTELCETPATSDIKSDTATGGECTGHDSHSQEPHGCSNQRPAEDLTVRVERLTKKLEERREEKRKEEAQREIKKEIERRKTGKEMLDYKRKQEEELTKRMLEERSREKAEDRAARERIKQQIALDRAERAARFAKTKEAEAAKAAALLTKQAGTEVKRESTARDRSTIARIQFRLPDGSSFTNQFPSDAPLEEARQFAAQTVGNTYGNFSLATMFPRREFTREDYKRRLLDLELAPSASVVLLPAGRPATSIVHSSSGDIWTLLGTVLYPFLAIWRLISNFLFSNPPPAQTSARATSTEPSNSASSSKSEKREPVRKRMLEKRGEDFKKEGKIYRLRTQDDGEDENNTWNGNSTQQM
[1]
  binding: binds

B2: Phospholipase A-2-activating protein (PLAA) (protein, UniProt P27612 1-794)
chain: MASGASRYRLSCSLPGHELDVRGLVCCLYPPGAFVSVSRDRTTRLWAPDSPNRGFTEMHCMSGHSNFVSCVCIIPSSDIYPHGLIATGGNDHNICIFSLDSPMPLYILKGHKDTVCSLSSGKFGTLLSGSWDTTAKVWLNDKCMMTLQGHTAAVWAVKILPEQGLMLTGSADKTIKLWKAGRCERTFLGHEDCVRGLAILSETEFLSCANDASIRRWQITGECLEVYFGHTNYIYSISVFPNSKDFVTTAEDRSLRIWKHGECAQTIRLPAQSIWCCCVLENGDIVVGASDGIIRVFTESEERTASAEEIKAFERELSQATIDSKTGDLGDINAEQLPGREHLSEPGTREGQTRLIRDGERVEAYQWSVSDGRWIKIGDVVGSSGANQQTSGKVLYEGKEFDYVFSIDVNEGGPSYKLPYNVSDDPWLVAYNFLQKNDLNPMFLDQVAKFIIDNTKGQTLGLGNTSFSDPFTGGGRYVPGTSGPSNTVQTADPFTGAGRYMPGSAGMDTTMTGVDPFTGNSAYRSAASKTVNIYFPKKEALTFDQANPTQILGKLKELNGTAPEEKKLTEDDLVLLEKILSLICNNSSEKPTAQQLQILWKAINWPEDIVFPALDILRLSIKHPNVNENFCNEKGDQFSSHLINLLNPKGKPANQLLALRTFCNCFVSQAGQKLMMSQRESLMSHAIELKSGSNKNIHIALATLTLNYSVCFHKDHNIEGKAQCLSVISTILEVVQDLEATFRLLVALGTLISDDSNAIQLAKSLGVDSQIKKYVSVSEPAKVSECCRLVLHLL
[1]
  binding: binds

From article doi:10.1101/2022.01.24.477493
